Consider 2 substances from PMC4725857.

The target of test [1] is T1, BBK32-FL (recombinant BBK32, residues 21 to 354) (B. burgdorferi B31) (UniProt O50835).
T1 sequence: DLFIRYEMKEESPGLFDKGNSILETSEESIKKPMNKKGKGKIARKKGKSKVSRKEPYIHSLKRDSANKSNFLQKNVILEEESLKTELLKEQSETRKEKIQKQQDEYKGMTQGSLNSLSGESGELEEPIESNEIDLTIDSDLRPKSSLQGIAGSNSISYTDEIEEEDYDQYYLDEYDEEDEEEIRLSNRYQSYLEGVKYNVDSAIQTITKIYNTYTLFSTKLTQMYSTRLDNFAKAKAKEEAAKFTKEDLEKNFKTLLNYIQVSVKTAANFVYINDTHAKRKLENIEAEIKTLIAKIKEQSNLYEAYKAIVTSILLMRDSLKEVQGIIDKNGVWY
The test is described as follows: SPR; Biacore 3000, 25°C; BBK32 proteins immobilised by amine coupling on a C1 sensor chip; running buffer HBS-T-Ca2+ (20 mM HEPES pH 7.3, 140 mM NaCl, 0.005% Tween 20, 5 mM CaCl2), 10 μl/min; C1 0.2-100 nM, C1r enzyme 0.39-200 nM or 2.0-1000 nM series, 1:1 (Langmuir) kinetic fit; single C1 components at a fixed 50 nM; both purified.

Test [2] deals with T2, BBK32-C (C-terminal region of BBK32, residues 206-354) (B. burgdorferi B31) (UniProt O50835).
T2 sequence: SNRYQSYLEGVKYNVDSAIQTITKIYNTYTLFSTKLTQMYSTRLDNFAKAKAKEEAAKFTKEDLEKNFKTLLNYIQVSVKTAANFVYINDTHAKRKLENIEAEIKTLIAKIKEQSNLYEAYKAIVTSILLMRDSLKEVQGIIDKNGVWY
The description is as above.

These are yes or no findings as the source states them, for the method shown.

For the substance “C1s enzyme (activated human complement C1s protease)”, the binding entry in test [1] is on record as “no binding (tested: 50 nM)”. For “C1s proenzyme (human complement C1s, zymogen)”, the binding result in test [2] and in test [1] was “no binding (tested: 50 nM)” throughout.
